Some of the results follow. Shown are side measurements of this screen, not its main read-out; they come without a call. Compounds called inactive in the main read-out are mostly missing here. Words in brackets tell the shape of the fitted curve; partial curves, single points and poor fits give uncertain potencies.

A short description of this test: IkB Signaling. To be noted: ABC-DLBCL IkBa-CBG/CBR dual luciferase ratio (green luciferase fused to IkBa over red control in OCI-Ly3 lymphoma cells), 4 h; measured here: control luc red channel unless noted. The essentials: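 Luminescence ratio of IκBα-fused green versus native red beetle luciferase in OCI-Ly3 cells, 4 h post-doxycycline with compound; red signal alone, scaled from basal (0%) to zero light (-100%), flagged nonspecific or cytotoxic effects.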
In the case of `O=C(O)c1ccc2nc(-c3cc4cc(Cl)ccc4oc3=O)[nH]c2c1`, the AC50 was 0.1 µM [falling, full curve]. In the case of `Cc1ccc(-c2nc3c4ccccc4n(CC(=O)NCc4ccc(F)cc4)c(=O)n3n2)cc1` it was 39.8 µM [rising, single point]. On to `O=C(CSc1nc(-c2ccccc2F)nc2cc(=O)[nH]n12)Nc1cccc(C(F)(F)F)c1`, for which the AC50 is 15.8 µM [falling, partial curve]. With `O=C(Cn1cc(C(=O)COc2ccccc2)c2ccccc21)NCc1ccco1`, the AC50 was 15.8 µM [falling, partial curve]. `Cc1cc(C)cc(OCCCn2c(-c3ccc(Cl)cc3)nc3ccccc3c2=O)c1`: the AC50 is 39.8 µM [falling, single point]. With `COC(=O)c1sc(-c2ccccc2)cc1NC(=O)Nc1ccc(F)cc1`, the AC50 was 15.8 µM [falling, single point].

Turning to `COc1ccc(Cc2nn3c(-c4cc(OC)c(OC)c(OC)c4)nnc3s2)cc1`, the AC50 is 10 µM [falling, partial curve]. Regarding `Cc1cc(C)cc(NC(=O)C2CCCN2S(=O)(=O)c2ccc3nc(-c4ccccc4)[nH]c3c2)c1` (stereo not given), the AC50 was 10 µM [falling, partial curve].

As for `O=C(O)CC(NC(=O)c1ccccc1NC(=O)c1ccccc1)C(=O)O` (stereo not given), the AC50 is 5.01 µM [falling, partial curve]. To `CCC1Oc2ccccc2N(CC(=O)NCc2cc(OC)ccc2OC)C1=O` (stereo not given) belongs 10 µM [falling, partial curve]; to `O=c1[nH]c2ccccc2n1CCCSCCCn1c(=O)[nH]c2ccccc21`, 10 µM [falling, partial curve]. Turning to `O=C(Nc1nc2ccccc2n1Cc1ccccc1)c1ccco1`, the AC50 is 39.8 µM [rising, single point] [measured here: IkB-luc green channel]. To `O=C(Oc1cccc2cccnc12)c1cccs1` belongs 20 µM [rising, partial curve] [measured here: IkB-luc green channel]; to `COc1cccc(CNCc2cccn2-c2nnc(N3CCN(c4ccccc4)CC3)s2)c1`, 20 µM [falling, single point]; to `COc1ccc(-c2[nH]ncc2C(=O)NCc2cccc(OC)c2)cc1`, 20 µM [falling, single point]. Consider `CCOc1cccc2cc(-c3cn4c(n3)sc3ccccc34)c(=O)oc12`, for which the AC50 is 0.251 µM [falling, full curve].

Regarding `Cc1ccsc1CN(C(=O)COc1ccc(Cl)cc1)C1CCS(=O)(=O)C1` (stereo not given), the AC50 is 39.8 µM [falling, single point]. Take `O=S(=O)(c1ccc2c(c1)OCCO2)N1CCC(c2nc3ccc(Cl)cc3[nH]2)CC1`: the AC50 is 15.8 µM [falling, partial curve].

With `O=C(CCNc1ccc(F)c(Cl)c1)c1ccco1`, the AC50 was 39.8 µM [falling, single point].

Regarding `COc1ccccc1CCC(=O)Nc1nc2ccccc2[nH]1`, the AC50 is 0.251 µM [falling, full curve]. `Cc1ccc(CNC(=O)CSc2nnc(C)c3c(C)n(-c4ccccc4)nc23)cc1`: the concentration at half-maximal activity (AC50) was 6.31 µM [falling, partial curve]. To `O=C(c1ccc(S(=O)(=O)N2CCCCC2)cc1)N1CCN(Cc2ccc3c(c2)OCO3)CC1` belongs 10 µM [falling, partial curve]; to `COc1ccccc1N1CCN(C(=O)C(Cc2ccccc2)NC(=O)C2CCCCC2)CC1` (stereo not given), 25.1 µM [falling, partial curve].

Regarding `CC1CCN(S(=O)(=O)c2ccc3c(ccc(=O)n3CC(=O)NCc3ccccc3Cl)c2)CC1`, the AC50 is 39.8 µM [falling, partial curve, poor fit]. As to `Cc1cc(OCC(=O)NC(Cc2c[nH]c3ccccc23)C(=O)O)ccc1Cl` (stereo not given), the half-maximal activity concentration (AC50) is 39.8 µM [falling, partial curve, poor fit]. Take `CCOC(=O)c1[nH]c(C)c(CCC(=O)Nc2ccccc2C(=O)OC)c1C`: the AC50 was 39.8 µM [falling, single point].

For `CCc1nn(CC(=O)NCCc2ccc(Cl)cc2)c(=O)c2cc3ccccc3n12`, the AC50 is 10 µM [falling, partial curve].

Take `Cc1ccc(CNC(=O)c2ccc3c(c2)N(Cc2ccccc2Cl)C(=O)CS3)cc1`: the AC50 was 10 µM [falling, partial curve]. For `CCOc1ccc2nc(N(Cc3cccnc3)C(=O)C3CCCCC3)sc2c1`, the AC50 is 39.8 µM [falling, single point]. Regarding `Cc1cccc(N2CCN(C(=O)c3oc(=O)c4ccccc4c3-c3ccccc3)CC2C)c1` (stereo not given), the AC50 is 7.94 µM [falling, full curve, poor fit]. As to `COc1ccc(Cn2c(CCC(=O)Nc3ccc(C)cc3C)nc3cccnc32)cc1`, the AC50 is 7.94 µM [falling, partial curve, poor fit].

As to `CCCCOc1cc(C[C@@H]2CNC(=O)N2)ccc1OC`, the AC50 is 10 µM [rising, full curve] [measured here: IkB-luc green channel].

With `Cc1ccc2c(nc3s/c(=C/c4cccs4)c(=O)n32)c1C`, the AC50 is 0.126 µM [falling, full curve, poor fit]. Consider `Cc1oc2ccc(O)c(CN3CCN(C)CC3)c2c1C(=O)Nc1ccccc1`, for which the AC50 is 3.16 µM [falling, partial curve, poor fit]. As to `Cc1cccc(CSc2nc(=O)c3c(n2C)NC(=O)CC3c2cc(F)cc(F)c2)c1` (stereo not given), the half-maximal activity concentration (AC50) was 20 µM [falling, single point].

On to `CCOC(=O)C1=C(CN2CCN(c3ccc(F)cc3)CC2)NC(=O)NC1c1cccs1` (stereo not given), for which the AC50 is 39.8 µM [falling, single point]. In the case of `CCc1ccccc1NC(=O)CSc1nnc(-c2ccc(OC)cc2)s1` it was 20 µM [rising, partial curve, poor fit]; in that of `CCOc1cccc2cc(C(=O)NCc3cccnc3)c(=O)oc12`, 2.51 µM [falling, full curve]; in that of `Cc1cccn2c(N)c(-c3ccccc3)nc12`, 20 µM [falling, partial curve]. For `CN(C)c1cccc(C(=O)Nc2nc3ccc(S(=O)(=O)N4CCCC4)cc3s2)c1`, the AC50 was 15.8 µM [falling, partial curve].

Usually AC50 stands for the concentration giving half of the maximal activity seen.

Source of the values: PubChem BioAssay AID445 (National Center for Advancing Translational Sciences (NCATS), 2006).
